Data source: PubChem BioAssay AID504784 (Drosophila RNAi Screening Center, 2011)

Purpose: 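Fly genes whose silencing alters how much lipid cells keep in droplets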 (primary screen)
System: Drosophila Kc167 embryonic cells
Reagent: long dsRNA against Drosophila genes, about 250 ng dsRNA per well
Time to read-out: 4 days
Conditions: cells fed 400 µM oleic acid bound to BSA
Measured: 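Microscope images give a droplet-to-nucleus area ratio, taken as log and converted to a screen-wide B-score; higher values mean greater lipid storage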
Scale: droplet/nuclear area B-score: higher = more stored lipid (overstorage)
The deposit covers about 17,000 reagents; below is a random part of those that have a named target and a result. 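Each column is one replicate's B-score; the combined score over replicates was not deposited, so single values may mislead.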 Names joined by + are all predicted targets of the reagent.

Which result is listed for RpL11 [DRSC07537]?
droplet/nuclear area B-score, replicate 1: 5.57; droplet/nuclear area B-score, replicate 2: 5.79

With TotF [DRSC02305], how do the results read?
droplet/nuclear area B-score, replicate 1: -0.961; droplet/nuclear area B-score, replicate 2: -0.146

For tey [DRSC11042], how do the results read?
droplet/nuclear area B-score, replicate 1: -0.761; droplet/nuclear area B-score, replicate 2: -0.145; droplet/nuclear area B-score, replicate 3: 0.384

What did the screen give for tey [DRSC21709]?
droplet/nuclear area B-score, replicate 1: -1.65; droplet/nuclear area B-score, replicate 2: 2.17

With CG12362 [DRSC09884], how do the results read?
droplet/nuclear area B-score, replicate 1: -0.932; droplet/nuclear area B-score, replicate 2: -1.31

With fan [DRSC10930], what was measured?
droplet/nuclear area B-score, replicate 1: 0.611; droplet/nuclear area B-score, replicate 2: -0.135

With CG1638 [DRSC15132], how do the results read?
droplet/nuclear area B-score, replicate 1: 0.12; droplet/nuclear area B-score, replicate 2: -1.17

With CG5050 [DRSC02807], what does the deposit list?
droplet/nuclear area B-score, replicate 1: 0.0546; droplet/nuclear area B-score, replicate 2: -0.0743

With RpS5b [DRSC16173], what was measured?
droplet/nuclear area B-score, replicate 1: 0.217; droplet/nuclear area B-score, replicate 2: 0.741

With CG12310 [DRSC09878], what does the deposit list?
droplet/nuclear area B-score, replicate 1: -0.674; droplet/nuclear area B-score, replicate 2: -0.372

How did the screen score CG6833 [DRSC10721]?
droplet/nuclear area B-score, replicate 1: -1.67; droplet/nuclear area B-score, replicate 2: -3.51; droplet/nuclear area B-score, replicate 3: 0.0506

With CG2983 [DRSC00558], what was measured?
droplet/nuclear area B-score, replicate 1: -0.499; droplet/nuclear area B-score, replicate 2: 0.915

What is on record for Vsx2 [DRSC17397]?
droplet/nuclear area B-score, replicate 1: -0.878; droplet/nuclear area B-score, replicate 2: -0.797

What did the screen give for Vsx2 [DRSC18087]?
droplet/nuclear area B-score, replicate 1: 0.602; droplet/nuclear area B-score, replicate 2: 0.102

What did the screen give for Vsx2 [DRSC18088]?
droplet/nuclear area B-score, replicate 1: -0.522; droplet/nuclear area B-score, replicate 2: -0.946; droplet/nuclear area B-score, replicate 3: -0.383

With Vsx2 [DRSC18089], what does the deposit list?
droplet/nuclear area B-score, replicate 1: 0.868; droplet/nuclear area B-score, replicate 2: 0.837; droplet/nuclear area B-score, replicate 3: -1.76

With Vsx2 [DRSC23089], what does the deposit list?
droplet/nuclear area B-score, replicate 1: -0.674; droplet/nuclear area B-score, replicate 2: -0.99

What did the screen give for Vsx2 [DRSC23273]?
droplet/nuclear area B-score, replicate 1: 2.15

Which result is listed for Gs1l [DRSC00754]?
droplet/nuclear area B-score, replicate 1: 0.587; droplet/nuclear area B-score, replicate 2: -0.128

How did the screen score CG6282 [DRSC10616]?
droplet/nuclear area B-score, replicate 1: -0.931; droplet/nuclear area B-score, replicate 2: -0.62

With CG32032 [DRSC08961], how do the results read?
droplet/nuclear area B-score, replicate 1: 0.0548; droplet/nuclear area B-score, replicate 2: -0.688

Which result is listed for CG10205 [DRSC05979]?
droplet/nuclear area B-score, replicate 1: 4.63; droplet/nuclear area B-score, replicate 2: 0.956

What did the screen give for CG18622 [DRSC15360]?
droplet/nuclear area B-score, replicate 1: 0.361; droplet/nuclear area B-score, replicate 2: -0.0472

What did the screen give for CG31251 [DRSC16247]?
droplet/nuclear area B-score, replicate 1: -2.02; droplet/nuclear area B-score, replicate 2: -0.444

Which result is listed for CG5916 [DRSC15917]?
droplet/nuclear area B-score, replicate 1: 1.15; droplet/nuclear area B-score, replicate 2: -0.62

What did the screen give for CG42322 [DRSC15112]?
droplet/nuclear area B-score, replicate 1: 1.24; droplet/nuclear area B-score, replicate 2: -0.151

With CG42322 [DRSC15113], how do the results read?
droplet/nuclear area B-score, replicate 1: 0.0738; droplet/nuclear area B-score, replicate 2: -1.48

With CG42322 [DRSC15114], what was measured?
droplet/nuclear area B-score, replicate 1: 0.927

Which result is listed for CycA [DRSC09132]?
droplet/nuclear area B-score, replicate 1: 0.276; droplet/nuclear area B-score, replicate 2: 0.793

With CycA [DRSC11123], how do the results read?
droplet/nuclear area B-score, replicate 1: 5.73; droplet/nuclear area B-score, replicate 2: -2.7

What did the screen give for cpo [DRSC13265]?
droplet/nuclear area B-score, replicate 1: 0.24; droplet/nuclear area B-score, replicate 2: -0.0932

For CtsL4 [DRSC02849], how do the results read?
droplet/nuclear area B-score, replicate 1: -0.886; droplet/nuclear area B-score, replicate 2: -0.247

For sktl [DRSC04715], what was measured?
droplet/nuclear area B-score, replicate 1: -1.06; droplet/nuclear area B-score, replicate 2: -1.43

With Aptx [DRSC15768], how do the results read?
droplet/nuclear area B-score, replicate 1: -0.526

Entries above whose gene name begins with T or t:
TotF [DRSC02305] — droplet/nuclear area B-score, replicate 1 = -0.961; droplet/nuclear area B-score, replicate 2 = -0.146
tey [DRSC11042] — droplet/nuclear area B-score, replicate 1 = -0.761; droplet/nuclear area B-score, replicate 2 = -0.145; droplet/nuclear area B-score, replicate 3 = 0.384
tey [DRSC21709] — droplet/nuclear area B-score, replicate 1 = -1.65; droplet/nuclear area B-score, replicate 2 = 2.17

The listing continues:
What did the screen give for CG42296 [DRSC00394]?
droplet/nuclear area B-score, replicate 1: -0.336; droplet/nuclear area B-score, replicate 2: 0.181

With NiPp1 [DRSC07307], what was measured?
droplet/nuclear area B-score, replicate 1: 0.0585; droplet/nuclear area B-score, replicate 2: 0.593

How did the screen score unc [DRSC20511]?
droplet/nuclear area B-score, replicate 1: -0.897; droplet/nuclear area B-score, replicate 2: -0.365

Which result is listed for kappaTry [DRSC06146]?
droplet/nuclear area B-score, replicate 1: -1.08; droplet/nuclear area B-score, replicate 2: -1.66

With Vps16B [DRSC15304], what does the deposit list?
droplet/nuclear area B-score, replicate 1: 0.12; droplet/nuclear area B-score, replicate 2: -0.877

For Cnep1r2 [DRSC10950], how do the results read?
droplet/nuclear area B-score, replicate 1: -0.704; droplet/nuclear area B-score, replicate 2: 1.72

Which result is listed for Spn88Eb [DRSC16093]?
droplet/nuclear area B-score, replicate 2: 0.57

What did the screen give for CG32278 + CG14963 [DRSC22203]?
droplet/nuclear area B-score, replicate 1: -0.266; droplet/nuclear area B-score, replicate 2: -2.26

With Mid1 [DRSC04230], how do the results read?
droplet/nuclear area B-score, replicate 1: -1.74; droplet/nuclear area B-score, replicate 2: -1.54; droplet/nuclear area B-score, replicate 3: -0.625

For Mid1 [DRSC04231], what was measured?
droplet/nuclear area B-score, replicate 1: 0.231; droplet/nuclear area B-score, replicate 2: -0.476

With Mid1 [DRSC04308], how do the results read?
droplet/nuclear area B-score, replicate 1: 1.77; droplet/nuclear area B-score, replicate 2: 4.51

With Mid1 [DRSC22773], how do the results read?
droplet/nuclear area B-score, replicate 1: -2.81; droplet/nuclear area B-score, replicate 2: -0.708

Which result is listed for Mid1 [DRSC22803]?
droplet/nuclear area B-score, replicate 1: 0.614; droplet/nuclear area B-score, replicate 2: -2.33

For CG34330 [DRSC20043], how do the results read?
droplet/nuclear area B-score, replicate 1: 0.111; droplet/nuclear area B-score, replicate 2: -0.03

How did the screen score CG10947 [DRSC02111]?
droplet/nuclear area B-score, replicate 1: 0.697; droplet/nuclear area B-score, replicate 2: -1.5

For CG11029 [DRSC02119], what does the deposit list?
droplet/nuclear area B-score, replicate 1: 0.409; droplet/nuclear area B-score, replicate 2: 0.09

What is on record for CG3706 [DRSC18649]?
droplet/nuclear area B-score, replicate 1: -2.12; droplet/nuclear area B-score, replicate 2: -0.625
